The results in this text go back to PubChem BioAssay AID1458 (National Center for Advancing Translational Sciences (NCATS), 2008).

Structures are written as SMILES. Out of some 210,000 compounds screened, about 5,900 (2.8%) were called active. Not shown: some 5% with an inconclusive outcome. Calls come from the whole dose curve; as a rule, active = well fitted activation curve with a large enough effect; inconclusive = small, poorly fitted or top-dose-only effect; inactive = no such curve, though single readings can be large or run the other way. This is a selection; strong and weak results do not stand in their true shares. The source gives no active or inactive call for entries shown without one.
Potency is the fitted concentration of half-maximal effect.

The nature of the assay: qHTS Assay for Enhancers of SMN2 Splice Variant Expression. For activity change, positive = activation: % of control where 0% means no effect. Note: nearly all actives have a fitted effect of over 55% in size. As to conditions: HEK293 SMN2-luciferase splicing reporter, luminescence, 30-36 h; activity change, positive = activation: at 46.1 µM (top of the series) unless noted. A digest of the protocol: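 HEK293 cells carry an SMN2 minigene-luciferase reporter in which exon 7 inclusion puts luciferase in frame. Cells were seeded at 2000 cells/well, attached for 10-12 hours, then exposed to compounds for 30-36 hours at 37C before ONE-Glo luminescence.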
A general note: Quantitative high-throughput screening tests each substance at several concentrations.
With `COc1ccc(N(C(=O)Nc2ccc(Cl)cc2)C2=NCCC2)cc1`, the activity change, positive = activation amounted to 35%. The same measure, in the same setting: under `O=C(Nc1ccccc1NC(=O)NC1CCCCC1)NC1CCCCC1` stands inactive: -78.2%.

Consider `CCOC(=O)c1sc2nc(C)nc(SCC(=O)NC(C)CCc3ccccc3)c2c1C` (centres undefined), for which the activity change, positive = activation is -19.4%.

In the case of `COc1ccc(N2CCN(C(=O)Cn3nnc(-c4ccc(N(C)C)cc4)n3)CC2)cc1`, the “activity change, positive = activation” value was inactive: -42.8%. With `O=C(Nc1ccc2oc(-c3ccccc3)nc2c1)c1ccccc1F`, the Potency is active: 12.6 µM. For the compound `O=c1c(Cl)c(NCc2ccccc2)cnn1C12CC3CC(CC(C3)C1)C2`, the activity change, positive = activation is -76.3%. In the case of `COc1cnc(SCCC(F)=C(F)F)[nH]c1=O`, the activity change, positive = activation came to 31.5%. With `COc1ccc(-n2nc(C(=O)NCC(=O)NCC3CCCO3)c3ccccc3c2=O)cc1` (centres undefined), the activity change, positive = activation amounted to 31.2%. Consider `CN(C)c1ccc(-c2cc(NCc3ccccc3)ncn2)cc1`, for which the Potency was active: 0.794 µM.

As to `CCCCOc1ccc(C(=O)N2CC(C)OC(C)C2)cc1` (centres undefined), the activity change, positive = activation is -50.4%.

On to `CCOC(=O)c1sc(NC(=O)c2cccc(S(=O)(=O)N3c4ccccc4CC3C)c2)cc1C` (centres undefined), for which the activity change, positive = activation was 16.9%. Take `CC(C)CC(=O)Nc1ccc(Oc2ccc(NC(=O)CC(C)C)cc2)cc1`: the activity change, positive = activation was found to be 39.4%. Consider `Cc1nc(NC(=O)c2ccc3c(c2)OCO3)ccc1Br`, for which the Potency was active: 11.2 µM. For `COC(=O)c1ccc(NC(=O)c2ccc(N(C)S(C)(=O)=O)cc2)cc1`, the activity change, positive = activation was -98%. With `CCn1c(COc2cccc(C)c2)nnc1SCC(=O)Nc1cccc(C(=O)O)c1`, the activity change, positive = activation was 32.5%. With `O=C(Nc1cccn(Cc2c(Cl)cccc2Cl)c1=O)c1c(Cl)cccc1Cl`, the “activity change, positive = activation” value was inactive: -32.8%.

For `COc1ccc(Cn2cc(C(=O)c3ccc(C)c(C)c3)c(=O)c3ccccc32)cc1`, the “activity change, positive = activation” value was inactive: -34.1%.

For the compound `O=C(O)c1ccc(N/N=C/c2ccc3ncccc3c2)cc1`, the activity change, positive = activation was -60%.

For `CCOC(=O)CSC1=C(C#N)C(c2ccco2)C(C(=O)OCc2ccccc2)=C(C)N1` (centres undefined), the activity change, positive = activation turned out to be 31.1%. Consider `COC(=O)c1ccc(C(NC(=O)c2ccco2)[C@]2(C)C[C@H]2C2CCCCC2)cc1` (some centres undefined), for which the “activity change, positive = activation” value was inactive: -32.9%. On to `CCOC(=O)c1sc(/N=C/Nc2nc(C)c(C(=O)OCC)s2)nc1C`, for which the activity change, positive = activation was 47.7%. The same measure, in the same setting: next, `O=C(Nc1ccc(N2CCN(C(=O)c3ccc(Cl)cc3)CC2)cc1)c1ccc2c(c1)OCCO2`: inactive: -65.5%; `O=C(NCCCN1CCOCC1)C1(c2ccccc2)CCCC1`: 31.2%. Same read-out and setting: next, `Cc1sc(NC(=O)c2ccco2)nc1-c1ccc2c(c1)CC(C)N2C(=O)C1CC1` (centres undefined): inactive: -37.6%; `O=S(=O)(c1ccc2c(c1)OCCO2)N1CCN(c2cccc(Cl)c2)CC1`: -41.5%. For the compound `CCn1c(-c2ccc(N(C)C)cc2)nc2ccccc21`, the Potency was active: 12.6 µM. For `S=C1NC=NC2N=CNC12` (centres undefined), the “activity change, positive = activation” value was inactive: -37.9%. As to `Cc1nn(-c2ccccc2)c(N2CCCC2)c1/C=N/NC(=O)c1cc2ccccc2cc1O`, the activity change, positive = activation is -53.6%. Still for that read-out and setting: next, `O=c1c(-c2ccccc2)nc2cncnc2n1Cc1ccc(F)cc1`: inactive: -53.4%; `COc1ccc(O)c(/C=N/NC(=O)c2ccc(OCc3cccc(Br)c3)cc2)c1`: inactive: -78.8%; `Cc1nnc(SCc2nc3ccccc3s2)n1N`: 111%. As to `CCOC(=O)CSc1ccc(-c2nc3ccccc3[nH]2)cn1`, the activity change, positive = activation was determined as 36.2%. Turning to `Nc1ncc2c(n1)-c1ccccc1CC2`, the activity change, positive = activation worked out at 34.1%. Same read-out and setting: next, `O=C(NCCCc1ccccc1)c1nn(-c2ccccc2)nc1CO`: inactive: -33.7%; `CCN(CC)c1nc(-c2ccccn2)nc(-c2ccccc2)c1C#N`: inactive: -80.7%. Regarding `O=C(Nc1nc2c(Cl)cccc2s1)c1ccc(Br)o1`, the activity change, positive = activation came to 34.4%. Turning to `Cc1cccc(CCNC(=O)CCCOc2cc(=O)n(C)c3ccccc23)c1`, the activity change, positive = activation is -4.07%. Consider `Cc1cc(NCc2ccc(Cl)cc2)n2cnnc2n1`, for which the “activity change, positive = activation” value is inactive: -51.3%.

For `O=C(Nc1ccc(S(=O)(=O)N2CCCCC2)cc1)c1cnccn1`, the “activity change, positive = activation” value was inactive: -45.6%.

Take `CC[n+]1ccccc1/C=C/c1ccc(N(C)C)cc1`: the “activity change, positive = activation” value is inactive: -54.5%. Consider `COc1ccc(C2C(C(=O)N3CCOCC3)=C(C)NC3=C2C(=O)CC(C)(C)C3)cc1O` (centres undefined), for which the activity change, positive = activation came out at 50.5%. Take `Cc1ccc(NC(=O)Cc2ccccc2Cl)cc1S(=O)(=O)N(C)C`: the activity change, positive = activation was -40.7%.

Regarding `O=C(CCl)Nc1cc(SCC(O)CO)cc([N+](=O)[O-])c1` (centres undefined), the “activity change, positive = activation” value is inactive: -105%.

In the case of `CCc1ccc(NC(=O)Cn2c(=O)n(CCCC(=O)NCc3ccccc3Cl)c(=O)c3ccccc32)cc1`, the activity change, positive = activation amounted to 38.5%. In the case of `O=C(COC(=O)c1cc(-c2cccc(Br)c2)nc2ccccc12)NCC1CCCO1` (centres undefined), the activity change, positive = activation came to 117%.

Regarding `COc1ccccc1-c1nnc(C2CCN(S(=O)(=O)c3ccc(CC(C)C)cc3)CC2)o1`, the “activity change, positive = activation” value is inactive: -36.1%.

Regarding `N=c1n(CCN2CCCC2)c2ccccc2n1CC(O)c1ccco1` (centres undefined), the activity change, positive = activation is 31.1%. Turning to `COc1ccc(OC)c(NC(=O)CSc2nnc(N)s2)c1`, the activity change, positive = activation is 41.7%. Regarding `O=C(c1ccco1)N1CCC2(CCN(Cc3cc(C(F)(F)F)cc(C(F)(F)F)c3)CC2)CC1`, the activity change, positive = activation is -34.1%. Turning to `COc1cc(/C=C2\SC(=Nc3ccc(O)cc3)NC2=O)cc(OC)c1O`, the activity change, positive = activation came to 32.7%. For the compound `CCN1CCCC1CNS(=O)(=O)c1ccc(C(=O)Nc2ccccc2)cc1` (centres undefined), the activity change, positive = activation was 35.9%. For `CC(C)(C)C1=CC(=Nc2ccccc2N)C=C(C(C)(C)C)C1=O`, the “activity change, positive = activation” value was inactive: 2.41%. As for `CCCC(=O)Nc1nc2ccc(C(=O)OCC)cc2s1`, the Potency was active: 17.8 µM. `Cc1ccccc1NC(=O)CN1C(=O)S/C(=C\c2ccc(-c3cccc(C(=O)O)c3C)o2)C1=O`: the Potency is active: 11.2 µM.
